Test results: patent US20160281145
The exact form of at least one protein or probe is not confirmed. For some assays here: Negatives hold for the conditions tested.

Amino acid sequences for entries named in this document (tags omitted). Residues count along the entry.
UniProt P01127, 82-190: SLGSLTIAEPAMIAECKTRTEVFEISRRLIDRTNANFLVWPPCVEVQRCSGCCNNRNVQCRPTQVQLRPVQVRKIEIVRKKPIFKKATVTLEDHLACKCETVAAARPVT
UniProt P05019, 49-118: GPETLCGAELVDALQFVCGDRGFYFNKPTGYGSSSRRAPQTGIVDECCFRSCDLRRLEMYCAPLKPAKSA
UniProt P02769, 25-607: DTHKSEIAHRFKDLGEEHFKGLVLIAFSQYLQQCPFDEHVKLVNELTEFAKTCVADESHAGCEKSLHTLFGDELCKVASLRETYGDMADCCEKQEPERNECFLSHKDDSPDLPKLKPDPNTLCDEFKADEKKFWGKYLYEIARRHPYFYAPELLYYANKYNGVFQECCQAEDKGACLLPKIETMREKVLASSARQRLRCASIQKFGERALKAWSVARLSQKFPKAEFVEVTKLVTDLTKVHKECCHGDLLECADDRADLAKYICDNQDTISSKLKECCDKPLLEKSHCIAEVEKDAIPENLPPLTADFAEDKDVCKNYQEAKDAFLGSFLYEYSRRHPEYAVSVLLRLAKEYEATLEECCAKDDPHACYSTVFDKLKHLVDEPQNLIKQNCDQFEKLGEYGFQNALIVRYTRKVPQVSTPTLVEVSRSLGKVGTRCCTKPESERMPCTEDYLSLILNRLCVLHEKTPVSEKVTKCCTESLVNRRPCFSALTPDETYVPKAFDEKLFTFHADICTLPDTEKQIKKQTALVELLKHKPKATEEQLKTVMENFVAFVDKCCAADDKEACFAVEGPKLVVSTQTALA
UniProt P01133, 971-1023: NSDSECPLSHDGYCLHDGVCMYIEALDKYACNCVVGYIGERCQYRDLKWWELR

What was measured:
Test in all cases: binding assay
[1] = biological target: PDGF-BB (platelet-derived growth factor BB) (Homo sapiens) (UniProt P01127); settings: structure-switching fluorescence, purified recombinant protein, protein details: R&D Systems, single-stranded DNA
[2] = biological target: IGF-I (insulin-like growth factor I) (UniProt P05019); settings: 100 nM IGF-I, no measurable signal change; PDGF assay buffer, 25 C; purified recombinant protein; protein details: R&D Systems; single-stranded DNA
[3] = biological target: BSA (bovine serum albumin) (Bos taurus) (UniProt P02769); settings: 100 nM BSA, no measurable signal change; PDGF assay buffer, 25 C; purified native protein; single-stranded DNA
[4] = biological target: EGF (epidermal growth factor) (UniProt P01133); settings: 100 nM EGF, no measurable signal change; PDGF assay buffer, 25 C; purified recombinant protein; protein details: R&D Systems; single-stranded DNA

**Q.** Does “TGAGTCGCTGCAGGTAGTCGAAAGGGCAGGCTACGGCACGTAGAGCATCACCATGATCCTG” bind ([1]; 0-300 nM PDGF-BB concentration-dependent, lifetime 2.9 to 3.6 ns with 100 nM target, 20 mM Tris-HCl, 140 mM NaCl, 5 mM KCl, 1 mM CaCl2)?
**A.** binds

**Q.** Does “TGAGTCGCTGCAGGTAGTCGAAAGGGCAGGCTACGGCACGTAGAGCATCACCATGATCCTG” bind ([1]; 0-300 nM PDGF-BB, similar concentration response but lower signal enhancement than concatemer)?
**A.** binds

**Q.** Does “TGAGTCGCTGCAGGTAGTCGAAAGGGCAGGCTACGGCACGTAGAGCATCACCATGATCCTG” bind [2]?
**A.** no binding

**Q.** Does “TGAGTCGCTGCAGGTAGTCGAAAGGGCAGGCTACGGCACGTAGAGCATCACCATGATCCTG” bind [3]?
**A.** no binding

**Q.** Does “TGAGTCGCTGCAGGTAGTCGAAAGGGCAGGCTACGGCACGTAGAGCATCACCATGATCCTG” bind [4]?
**A.** no binding
